One compound from patent US7601728B2, “Bicyclic pyrrole derivatives” (Dainippon Sumitomo Pharma Co., Ltd., priority 2004, dated 2009) can be followed below.

By UniProt entry, the sequences of proteins in these tests, tags left out. Residues count along the entry.
UniProt P27487, 39-766 limits assumed: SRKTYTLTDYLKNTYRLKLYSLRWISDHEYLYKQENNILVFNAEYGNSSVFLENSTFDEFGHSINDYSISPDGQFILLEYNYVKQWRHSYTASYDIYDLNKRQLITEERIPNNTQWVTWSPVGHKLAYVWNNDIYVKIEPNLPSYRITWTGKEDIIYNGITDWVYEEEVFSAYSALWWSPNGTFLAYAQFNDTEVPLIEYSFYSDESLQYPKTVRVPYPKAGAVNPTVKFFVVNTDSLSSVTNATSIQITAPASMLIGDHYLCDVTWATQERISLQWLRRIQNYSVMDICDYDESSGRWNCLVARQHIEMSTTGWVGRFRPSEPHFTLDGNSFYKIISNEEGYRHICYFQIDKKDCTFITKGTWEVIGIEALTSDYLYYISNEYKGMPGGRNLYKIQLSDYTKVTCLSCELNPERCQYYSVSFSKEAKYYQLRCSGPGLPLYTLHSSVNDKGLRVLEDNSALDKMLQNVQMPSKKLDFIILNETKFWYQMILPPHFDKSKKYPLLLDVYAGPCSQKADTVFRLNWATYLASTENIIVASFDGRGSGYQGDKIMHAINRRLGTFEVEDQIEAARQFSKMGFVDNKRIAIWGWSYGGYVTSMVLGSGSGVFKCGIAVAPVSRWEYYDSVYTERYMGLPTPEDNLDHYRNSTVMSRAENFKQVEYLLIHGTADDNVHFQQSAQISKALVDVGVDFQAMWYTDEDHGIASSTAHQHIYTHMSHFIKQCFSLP

The target in this assay is Human DPP IV (Homo sapiens, UniProt P27487). In words: In Vitro DPP-IV Inhibitory Effect Measurement Test. In kind it is biochemical. As to conditions: read-out: Human DPP IV inhibiting activity IC50; human serum containing DPP-IV enzyme; substrate Glycyl-L-Proline 4-Methyl-Coumaryl-7-Amide 10 to 100 μM; room temperature; fluorescence 360/460 nm; tested form: CF3CO2H.

The match of structure and compound is tentative.

Regarding `Cn1c(=O)c2c(c(C=O)c(N3CCC[C@@H](N)C3)n2Cc2ccccc2Cl)n(C)c1=O`, the half-maximal inhibitory concentration (IC50) was found to be 28 nM.
